## Results from one PubChem assay

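A cell-based FRET test of anthrax lethal toxin entry, tracked through the 460 nm emission signal; the cell line is not named here.
Each compound was tested as a concentration series from about 0.0005 to 40 µM.
The number is the fitted AC50 of the 460 nm signal alone; lower values mean a more potent effect. A falling signal goes with compounds filed as inhibitors or cytotoxic, a rising one with activators or fluorescent compounds (inferred from the filed classes).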

Values are in µM.
Common to all entries: measured here: 460 nm channel.
Part of the compounds only, not a random draw; the main read-out is not listed here.
A potency from a partial, single-point or poor curve is only a rough figure.
The first word of each remark tells which way the curve ran; it can be opposite to the aim of the assay.

Compound	AC50 (µM)	curve as filed
Fc1ccc(Cn2nnnc2C(c2cccs2)N2CCCCCC2)cc1 (stereo not shown)	3.981	falling, single point
O=C(Nc1cccc(OC(F)(F)F)c1)c1ccc(Br)o1	10	falling, single point
COC(=O)Cc1cnc(NC(=O)C2C3CCC(C3)C2C(=O)O)s1 (stereo not shown)	5.012	falling, single point
O=C(COc1ccc2ccccc2c1Br)N1CCN(c2ccccn2)CC1	12.59	falling, single point
CO[C@]1(NC(=O)[C@H](C(=O)O)c2ccc(O)cc2)C(=O)N2C(C(=O)O)=C(CSc3nnnn3C)CO[C@H]21	10	falling, partial curve
Cc1cc(C(=O)CSc2nnc(C3COc4ccccc4O3)n2C)c(C)n1-c1ccc(F)cc1 (stereo not shown)	0.631	falling, partial curve
Oc1c(CN2CCc3ccccc3C2)cc(Cl)c2cccnc12	10	falling, partial curve
c1ccc(C2=Nn3c(nnc3-c3cc(-c4ccccc4)n[nH]3)SC2)cc1	31.62	falling, single point
CCN(CCCNC(=O)CNC(=O)Cn1cnc2ccccc2c1=O)c1cccc(C)c1	5.012	falling, single point
Cn1c(N2CCN(C(=O)NCc3ccccc3)CC2)nc2ccccc21	0.007943	falling, full curve, poor fit
COc1ccccc1-c1ccc2ncnc(NCc3ccccc3)c2c1	31.62	falling, single point
CCc1ccc(C(=O)CSC2=C(C#N)C(c3ccco3)C(C(C)=O)=C(C)N2)cc1 (stereo not shown)	15.85	falling, partial curve
CCOc1ccc(NC(=O)CN2C(=O)COc3ccc(Cl)cc32)cc1	3.162	falling, partial curve
CCOC(=O)c1c(C)oc2c1c(C(c1ccncc1)N1CCOCC1)c(O)c1ccccc12 (stereo not shown)	12.59	falling, partial curve
CO[C@H]1COC(=O)[C@@H](C)COC(=O)[C@@H](OCc2ccccc2)/C=C\[C@@H]1C	0.1995	rising, single point
Cc1ccccc1N1C(=O)C(Cl)=C(N2CCCCCC2)C1=O	31.62	falling, single point
O=C(Cn1nc(-c2ccc(Cl)cc2)ccc1=O)NCCCN1CCN(Cc2ccccc2)CC1	0.5012	falling, full curve, poor fit
O=C(Nc1ccccc1)Nc1nncs1	15.85	rising, single point
CCc1nnc(NC(=O)CN2C(=O)c3ccccc3C2=O)s1	0.03981	rising, full curve, poor fit
O=C(CSc1ncn(-c2ccccc2)n1)Nc1ccc(Br)cn1	31.62	rising, single point
c1ccc2c(NC3CCNCC3)nc(-c3ccoc3)nc2c1	31.62	falling, single point
O=C(NC1=NCCS1)c1ccc(-c2ccc(Cl)cc2)o1	0.01	falling, full curve
Cn1c(C(=O)N2CCc3ccccc3C2)cc2c(=O)n3ccccc3nc21	10	rising, partial curve
COC(=O)Cc1nc2ccccc2[nH]1	10	rising, single point
C=CCN1C(=O)/C(=C2/Sc3ccccc3N2CCCS(=O)(=O)O)SC1=S	6.31	falling, full curve, poor fit
CCCOc1ccc(-c2nc(C#N)c(N3CCN(C)CC3)o2)cc1	3.981	rising, single point
COc1ccccc1N1CCN(C(=O)c2sc3nc(-c4ccc(F)cc4)cn3c2C)CC1	12.59	falling, partial curve
COCCN1C=C(C(=O)OC)C(c2cc(Br)c(OC)c(OC)c2)C(C(=O)OC)=C1	5.012	rising, partial curve
O=c1c2c(nc3nc(COc4ccccc4)[nH]n13)CCC2	12.59	falling, partial curve, poor fit
O=c1nc(NC2CCCC2)ccn1Cc1cccc(Br)c1	3.981	rising, single point
CCOC(=O)C1[C@H]2C(=O)N(C(C)c3ccc(OC)cc3)C[C@]23C=C[C@H]1O3 (stereo partly shown)	0.005012	falling, full curve, poor fit
COc1nc(-c2ccc(C)cc2)ccc1-c1noc(-c2ccco2)n1	12.59	falling, single point
O=C(Nc1nc2c(s1)CCc1ccccc1-2)c1cccs1	31.62	falling, single point
COCCN(C(=O)c1ccccc1)c1nnc(-c2cccnc2)s1	12.59	falling, single point
O=C(c1ccccc1)N1CCN(c2ccc(NCc3ccc4c(c3)OCO4)cc2)CC1	10	falling, single point
O=C(c1cnn2c(C(F)(F)F)cc(-c3ccco3)nc12)N1CCc2ccccc2C1	6.31	rising, partial curve
CCOC(=O)CNC(=O)CSc1nnc(-c2ccco2)n1Cc1ccco1	1.259	rising, partial curve
Cn1nc(-c2ccc(Cl)cc2)c2cc(C(=O)NCc3ccco3)sc21	1.585	falling, partial curve
O=C(NCc1ccco1)c1sc(=S)n2c1[nH]c(=O)c1ccccc12	31.62	falling, partial curve
CCN1CCN(Cc2cc(=O)oc3cc(C)cc(C)c23)CC1	12.59	falling, single point
CCOC(=O)CSc1nc2ccccc2n1CC(=O)N1CCN(c2ccccc2)CC1	31.62	rising, single point
Cc1nn(-c2ccccc2)c(C)c1/C=N/N1CCN(Cc2ccccc2)CC1	25.12	falling, single point
CCC(Sc1nnnn1-c1ccccc1)C(=O)Nc1nc2ccccc2s1 (stereo not shown)	12.59	falling, partial curve
COc1ccc(S(=O)(=O)N2CCN(c3ccc(C)cc3C)CC2)cc1OC	12.59	falling, partial curve
COc1cccc(C(=O)Nc2ccc3nc(N4CCN(c5ncccn5)CC4)cc(C)c3c2)c1OC	2.512	falling, partial curve
CC(C)(C)c1ccc(O)c(CN(Cc2c(O)ccc3ccccc23)C2CCCCC2)c1	0.3981	falling, partial curve
CN(C)c1ncc2nc(-c3ccc(F)cc3)c(=O)n(C[C@H]3CCCO3)c2n1	10	rising, partial curve
O=C1c2[nH]nc(-c3ccccc3O)c2C(c2cccc(Cl)c2)N1Cc1ccco1 (stereo not shown)	12.59	falling, single point
COC(=O)c1ccc(NC2=CC(=O)CC(C)(C)C2)cc1	5.012	falling, single point
COC(=O)[C@@]1(Cc2ccc(OC)cc2)[C@H]2c3cc(C(=O)N4CCCC4)n(Cc4ccc(O)c(OC)c4)c3C[C@H]2CN1C(=O)c1ccccc1	10	rising, partial curve
Cc1cccc(N2CCN(C(=O)CS(=O)(=O)Cc3nc(-c4ccccc4F)oc3C)CC2C)c1 (stereo not shown)	15.85	falling, partial curve
c1csc(CNc2ncnc3ccc(-c4ccc5c(c4)OCO5)cc23)c1	31.62	falling, single point

Data taken from PubChem BioAssay AID912, deposited by NCATS (2007).